Measurements reported in PubChem BioAssay AID1671195 (Yale University, 2021)
This is an unselected part of about 22,000 reagents. Over the whole deposit, about 1,510 (6.9%) were called active. 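Active includes knockdowns raising or lowering LDL uptake; positive z-scores mean more uptake, negative mean less.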 Entries without a mark were called inactive.

Test: 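Knockdowns that increase or decrease uptake of fluorescent LDL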 (primary screen)
Cell system: human Huh7 hepatoma cells
Reagents: siRNA pool against human genes, 18 nM
Timing: about 2 to 2.5 days of knockdown, then 8 h LDL uptake
Challenge: DiI-labelled LDL at 30 µg/ml for 8 h, in lipoprotein-deficient serum medium
Measured: 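Per-cell DiI-LDL intensity by automated imaging; well means scaled to the plate median and given as a robust z-score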
Direction: robust z-score: higher = more LDL uptake after knockdown
Call rule: 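Active when two or more replicates show a robust z-score above 2 or below -2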

target | robust z-score, replicate 1 | robust z-score, replicate 2 | robust z-score, replicate 3
RPRD2 (regulation of nuclear pre-mRNA domain containing 2) | 0.498 | 0.207 | 0.469
RITA1 (RBPJ interacting and tubulin associated 1) | -0.253 | -0.994 | -0.456
LOC390427 (retired record) | -1.37 | -1.37 | -1.32
LOC401053 (retired record) | 0.878 | 0.437 | -0.131
ONECUT2 (one cut homeobox 2) | -1.98 (active) | -2.1 | -2.38
HYDIN (HYDIN axonemal central pair apparatus protein) | -1.34 | -2.93 | -1.44
CALHM3 (calcium homeostasis modulator 3) | 0.0743 | -0.0302 | 0.0585
KCNH5 (potassium voltage-gated channel subfamily H member 5) | -0.0579 | -1.27 | 0.386
METTL25 (methyltransferase like 25) | 0.288 | -0.405 | -0.175
APOBEC3H (apolipoprotein B mRNA editing enzyme catalytic subunit 3H) | -0.139 | 0.0698 | 0.403
LOC729704 | -0.457 | -1.33 | -0.664
HIBCH (3-hydroxyisobutyryl-CoA hydrolase) | -0.558 | -0.853 | -0.776
GPR68 (G protein-coupled receptor 68) | 0.602 | -0.787 | -0.0884
SCAMP5 | -0.0397 | 0.135 | -0.226
SPART (spartin) | -0.703 | 0.312 | -0.224
HMGN1 (high mobility group nucleosome binding domain 1) | -0.788 | -1.46 | -1.2
C8orf34 (chromosome 8 open reading frame 34) | -0.42 | 0.311 | 0.467
VGLL4 (vestigial like family member 4) | -0.197 | 0.332 | -1.79
EEF2 (eukaryotic translation elongation factor 2) | -0.716 | -0.522 | -0.579
LOC387903 (retired record) | -2.09 | -1.8 | -1.79
PDK1 (pyruvate dehydrogenase kinase 1) | -0.559 | -0.812 | -0.0511
MYF5 (myogenic factor 5) | 0.524 | 0.783 | -0.476
ZNF816 (zinc finger protein 816) | -1.17 | -1.35 | -1.14
LOC392591 (retired record) | -0.871 | -0.931 | -0.907
TMEM92 (transmembrane protein 92) | -0.748 | 0.608 | -0.744
OR56A4 (olfactory receptor family 56 subfamily A member 4) | -2.77 | -1.72 | -1.36
MEIS2 (Meis homeobox 2) | 0.527 | -0.667 | 0.612
LOC388206 (retired record) | -0.699 | -0.779 | -0.648
